We go through one substance from article PMC10919652.

No constants are given. Whether binding was seen depends on the method and setting. Binding seen in cells or lysates may run through a third protein. Binding can be weak; no strength is given. Where a sequence is shown, tags or fusion partners need not be part of it.

The target of this assay is T1, Flag-tagged Tp53 (zebrafish Tumour protein p53) (zebrafish) (UniProt P79734).
T1 sequence: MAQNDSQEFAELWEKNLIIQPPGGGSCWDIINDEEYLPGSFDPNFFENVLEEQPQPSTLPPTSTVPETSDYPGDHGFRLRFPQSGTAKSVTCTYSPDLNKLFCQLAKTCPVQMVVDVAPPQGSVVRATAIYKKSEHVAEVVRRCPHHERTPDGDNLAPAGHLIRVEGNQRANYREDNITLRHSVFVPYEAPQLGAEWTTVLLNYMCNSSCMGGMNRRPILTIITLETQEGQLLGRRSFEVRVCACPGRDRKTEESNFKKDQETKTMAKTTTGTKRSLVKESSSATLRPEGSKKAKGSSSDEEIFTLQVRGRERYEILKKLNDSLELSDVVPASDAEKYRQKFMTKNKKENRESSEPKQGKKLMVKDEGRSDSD
The assay can be described thus: co-IP; HEK293T cells co-transfected with Myc-tagged Fancl and Flag-tagged Tp53 plasmids (10 ug in total); lysed in RIPA buffer 24 h after transfection; supernatant incubated with anti-Flag or Myc magnetic beads overnight at 4 °C; western blot. Background: A western blot detects proteins with antibodies after separation by electrophoresis.

Consider “Myc-tagged Fancl (zebrafish Fanconi anemia complementation group L) (enzyme)”, for which the binding result was “binds”.
